PubChem BioAssay AID686943 | Drosophila RNAi Screening Center | 2013
The deposit covers about 23,000 reagents; this is an unselected part of those that have a named target and a result. 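Extra replicates exist only for a retested subset of genes; insulin dose and duration not given; both raised and lowered dpERK matter.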 Names joined by + are all predicted targets of the reagent. Further read-outs or replicates are left out here. No sequences are given here. Not stated in the record: the amount of reagent, the time to read-out.

- Assay: 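Search across the genome for regulators of signalling from receptor tyrosine kinase to ERK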 (primary screen)
- Cell system: Drosophila S2R+ haemocyte-like cells expressing YFP-tagged ERK (Rolled)
- Reagent: long dsRNA against Drosophila genes
- Challenge: insulin stimulation versus unstimulated cells; dose and duration not given
- Detection: 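Antibody staining for doubly phosphorylated ERK divided by ERK-YFP signal, as plate z-scores, in insulin-treated and untreated cells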
- Direction: replicate 1, z-score of dpERK with insulin: higher = more active ERK per ERK-YFP after insulin

replicate 1, z-score of dpERK with insulin, by target gene and reagent
CG17140 + CG17139: DRSC02585 0.27; DRSC02586 0.04
pasi2 (GeneID 41113): DRSC16380 1.29
CG3168 (GeneID 31612): DRSC18287 -0.17
sp3 (GeneID 42545): DRSC16354 0.47
Cp7Fa (GeneID 3885650): DRSC18032 -0.4; DRSC18033 0
CG11608 (GeneID 41556): DRSC14334 0.17
CG30484 (GeneID 36534): DRSC05457 0.03
Taf12 (GeneID 41406): DRSC16879 2.15
lncRNA:CR30055 (GeneID 10178803): DRSC22439 0.35
AP-2alpha (GeneID 33211): DRSC00800 1.22
CG30089 (GeneID 36736): DRSC06126 -0.77; DRSC06127 -9.1; DRSC06267 0.93; DRSC06268 -0.7; DRSC21694 0.11
Mur11Da (GeneID 318139): DRSC18960 1.05
Or42a (GeneID 35514): DRSC04912 -0.39
Atf3 (GeneID 43867): DRSC17225 -2.22
trsn (GeneID 36110): DRSC06078 0.5
CG4576 (GeneID 41914): DRSC15604 -0.37
CG7639 (GeneID 36675): DRSC07026 0.27
CG42560 + CG42559: DRSC21873 -0.06
Argp (GeneID 261628): DRSC16510 0.23
Gs1l (GeneID 33653): DRSC00754 -0.28
Est-P (GeneID 39393): DRSC11163 0.73
gw (GeneID 43808): DRSC17135 3.5; DRSC17160 0.34
PolD2 (GeneID 38228): DRSC08147 0.16
CG12134 (GeneID 36038): DRSC06109 0.21
CG2617 (GeneID 35331): DRSC02712 0.55
CG10344 (GeneID 37565): DRSC04066 1.55
CG9067 (GeneID 36197): DRSC07328 1.42
Utx (GeneID 34377): DRSC02872 1.37
CG11345 (GeneID 38548): DRSC08176 0.15
CG30002 (GeneID 246384): DRSC05182 -0.26
CG8500 (GeneID 41203): DRSC16434 -1.53

Records above whose target name begins with A or a:
replicate 1, z-score of dpERK with insulin, by target gene and reagent
AP-2alpha (GeneID 33211): DRSC00800 1.22
Atf3 (GeneID 43867): DRSC17225 -2.22
Argp (GeneID 261628): DRSC16510 0.23

Continued.
replicate 1, z-score of dpERK with insulin, by target gene and reagent
Cht4 (GeneID 49815): DRSC04603 -0.91
Reg-2 (GeneID 38075): DRSC08690 -0.7
alpha-Est7 (GeneID 40901): DRSC12619 0.21
BG642163 (GeneID 4379888): DRSC00342 0.53; DRSC00343 -0.31
CG10750 (GeneID 35206): DRSC02105 -0.34
vito (GeneID 326214): DRSC21781 0.42
egh (GeneID 31239): DRSC18771 0.27
TrpRS (GeneID 45399): DRSC14097 -0.65
crn (GeneID 31208): DRSC18184 2.16; DRSC18185 1.21; DRSC18755 0.43
CG2225 (GeneID 35421): DRSC03722 0.19; DRSC03723 0.08
CG7695 (GeneID 42234): DRSC16289 -0.24
Rab39 (GeneID 31684): DRSC17827 1.35
ReepA (GeneID 37643): DRSC04572 -0.26; DRSC22475 0.02
CG14147 (GeneID 39227): DRSC10149 1.05
